PubChem BioAssay AID2685 (National Center for Advancing Translational Sciences (NCATS), 2010)
This is one part of the list. Further columns of the screen follow, without active or inactive calls. Most of these compounds were active or inconclusive in the main read-out, so they are no random draw. The note in brackets gives the kind of curve behind each potency; many fits are weak.

Experiment: qHTS Assay for Lipid Storage Modulators in Drosophila S3 Cells;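 as to cell number change: cells counted by Cell Tracker Red CMTPX staining in the red channel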
Conditions: BODIPY lipid droplet fluorescence, 18-24 h; for cell number change: measured here: cell count max response, cells fed with added oleic acid
Outline: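 Drosophila S3 cells loaded with oleic acid (400 uM, as added) and compounds at several concentrations; lipid droplets imaged by 488-nm laser-scanning cytometry, 500–530 nm intensity and object ratio to cell channel. Percent activity normalized to 20 uM Triacsin C.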

[1] = measured here: cell number channel AC50, cells fed with added oleic acid
[2] = measured here: lipid fluorescence (Fed channel) AC50, cells fed with added oleic acid

CCCN1Cc2cccc(C(=O)NCc3cccs3)c2C1=O
AC50 [1]: 1.16 µM [rising, partial curve]
AC50 [2]: 2.06 µM [rising, partial curve, poor fit]

COc1ccc(C2C(C(=O)NCc3cccnc3)c3cc(OC)c(OC)cc3C(=O)N2C)cc1 (centres undefined)
cell number change: 6.27%

CCC(C)(C(=O)NC1CCCC1)N(C(=O)CC1NC(=O)NC1=O)c1ccc(C)cc1 (centres undefined)
cell number change: -70.7%
AC50 [1]: 25.9 µM [falling, partial curve, poor fit]
AC50 [2]: 29.1 µM [falling, single point]

CCc1cc(=O)oc2cc(C)c(CN3CCCC3)c(O)c12
cell number change: 3.46%
AC50 [2]: 6.51 µM [rising, single point]

C=CCNC(=O)CN(c1cccc(Br)c1)S(C)(=O)=O
AC50 [1]: 6.51 µM [rising, single point]

Cc1ccc(NC(=O)Nc2cnccn2)cc1
cell number change: -18.8%

O=C(CN1C(=O)c2ccccc2S1(=O)=O)NCCSCc1ccco1
cell number change: 0.535%
AC50 [2]: 20.6 µM [falling, single point]

c1ccc2c(c1)nnn2Cc1nnc2sc(-c3ccc4c(c3)OCCO4)nn12
cell number change: 104%
AC50 [1]: 0.651 µM [rising, single point]

Cc1nc(-c2cccs2)ccc1C(=O)O
AC50 [1]: 0.103 µM [falling, full curve, poor fit]

Nc1nc(N2CCN(c3ccccc3)CC2)n[nH]1
cell number change: -42.8%
AC50 [1]: 29.1 µM [falling, single point]
AC50 [2]: 29.1 µM [falling, single point]

CC1CCCN(CCCNC(=O)c2cc3c(s2)-c2ccccc2OC3)C1 (centres undefined)
cell number change: -27.7%
AC50 [2]: 6.51 µM [rising, single point]

C=CCc1c(C)nc(SCCC)[nH]c1=O
cell number change: -1.41%
AC50 [2]: 6.51 µM [falling, single point]

O=C(Nc1ccc(Cl)cn1)c1ccc([N+](=O)[O-])o1
cell number change: -58.6%
AC50 [1]: 18.4 µM [falling, single point]
AC50 [2]: 16.4 µM [falling, single point]

COc1ccc(-c2cc(C(F)(F)F)nc(S(C)(=O)=O)n2)cc1
cell number change: -36.4%
AC50 [1]: 0.00461 µM [falling, full curve, poor fit]
AC50 [2]: 18.4 µM [falling, partial curve, poor fit]

OCCNc1nc(-c2cccnc2)nc2ccccc12
cell number change: -22.9%
AC50 [2]: 1.46 µM [rising, partial curve]

CC1=Nn2c(nnc2-c2ccc(F)cc2)SC1
cell number change: 106%
AC50 [1]: 29.1 µM [rising, single point]

COc1cc(/C=N/NC(=O)c2cccc([N+](=O)[O-])c2)ccc1OCc1ccccc1
cell number change: -18%
AC50 [2]: 0.0731 µM [falling, full curve, poor fit]
